# Experimental data from PubChem BioAssay AID504834 (National Center for Advancing Translational Sciences (NCATS), 2011).
# The campaign covered roughly 320,000 compounds. About 22,000 (6.9%) were called active. Inconclusive results, whose numbers are uncertain, are shown with a selection of clear calls. Calls come from the whole dose curve; as a rule, active = well fitted inhibition curve with a large enough effect; inconclusive = small, poorly fitted or top-dose-only effect, or another doubt; inactive = no such curve, though single readings can be large or run the other way. Where the call is inconclusive, the potency comes from a doubtful curve fit.
# Experiment: Primary qHTS for delayed death inhibitors of the malarial parasite plastid, 96 hour incubation
# Conditions: P. falciparum luciferase reporter growth; series mostly up to 28.7 µM; activity change, negative = inhibition: at the top concentration
# In short: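 Delayed-death screen, second-generation endpoint: infected erythrocytes, 2% hematocrit, 0.05% parasitemia final; 96 hours at 37 C, 5% CO2; luciferase detection reagent; luminescence decrease equals reduced growth.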
# % is set by controls: 0 for no effect and ±100 for the full control effect; potency is the fitted concentration of half-maximal effect.
SMILES,"activity change, negative = inhibition",Potency
O=C(Nc1nc2ccsc2c(=O)s1)c1ccco1,inactive: 26.9%,–
NC(=O)C1(N2CCCCC2)CCN(C(=O)c2ccc(C#CC3(O)CCCCC3)cc2)CC1,–,"inconclusive: 13.1 µM [inhibitor, partial curve, poor fit]"
O=C(CCN1C(=O)S/C(=C\c2ccccc2)C1=O)NC1CCS(=O)(=O)C1 (configuration not stated),–,active: 11.7 µM
Cc1c(C(=O)Nc2ccc(S(=O)(=O)NCC3CCCO3)cc2)cccc1[N+](=O)[O-] (configuration not stated),inactive: -53.8%,–
Cc1cccn2c(=O)c3cc(C(=O)N4CCCC(C)C4)sc3nc12 (configuration not stated),–,"inconclusive: 2.08 µM [inhibitor, partial curve]"
CCOc1cc(/C=N/NC(=S)Nc2ccccc2C(F)(F)F)ccc1OCC(=O)N1CCOCC1,–,"inconclusive: 18.5 µM [inhibitor, partial curve, poor fit]"
O=C1CN(C(=O)COc2ccccc2)CCN1,–,"inconclusive: 2.33 µM [inhibitor, single point]"
COc1ccc(C2C3=C(CCCC3=O)Nc3ccc4ncccc4c32)cc1OC (configuration not stated),–,active: 0.294 µM
Cc1ccc(-n2ncc3c(NNC(=O)c4cccs4)ncnc32)cc1,–,"inconclusive: 9.28 µM [inhibitor, partial curve, poor fit]"
C=CCNC(=S)N1CCC(Cc2ccccc2)CC1,–,active: 11.7 µM
COc1ccc(C2c3c(nc[nH]c3=O)Oc3nc[nH]c(=O)c32)cc1,inactive: 44.2%,–
COc1ccccc1N(CC(=O)Nc1cccc(C(F)(F)F)c1)S(C)(=O)=O,inactive: 2.8%,–
CN(c1ccccc1)S(=O)(=O)c1cc(C(=O)NCCCn2ccnc2)ccc1Cl,inactive: -28.7%,–
O=C(Nc1ccn(-c2ccccc2)n1)c1ccc(S(=O)(=O)N2CCCCCC2)cc1,–,"inconclusive: 0.0026 µM [inhibitor, full curve, poor fit]"
COc1cccc(NC(=O)CNS(=O)(=O)c2ccc3nc(C)sc3c2)c1,–,"inconclusive: 10.4 µM [inhibitor, single point]"
O=C(CCCCCN1C(=O)c2cccc3cccc(c23)C1=O)NCc1cccnc1,–,"inconclusive: 1.85 µM [inhibitor, full curve, poor fit]"
COc1ccc(/C=N/NC(=O)c2cccnc2)c(C(=O)O)c1OC,inactive: 67.6%,–
CCN(CC)S(=O)(=O)c1ccc2nc(CSc3nnnn3-c3ccc(O)cc3)[nH]c2c1,–,"inconclusive: 18.5 µM [inhibitor, single point]"
CCc1ccc(-c2nc(CSCC(=O)NCCCN3CCCC3=O)c(C)o2)cc1,–,"inconclusive: 2.33 µM [inhibitor, partial curve, poor fit]"
Cc1oncc1-c1csc(-c2ccccc2)n1,inactive: 113%,–
COc1cc(NC(=O)COc2ccc(-n3ccnc3)cc2)cc(OC)c1,–,"inconclusive: 18.5 µM [inhibitor, single point]"
CCOc1ccc(NC(=O)c2nn(C)c(C(=O)Nc3ccc(OCC)cc3)c2[N+](=O)[O-])cc1,–,"inconclusive: 20.8 µM [inhibitor, partial curve, poor fit]"
Cc1nc2ccccc2c(=O)n1-c1ccc(-c2ccccc2)cc1,–,"inconclusive: 1.85 µM [inhibitor, partial curve, poor fit]"
CCOC(=O)c1ccc(N(C(=O)c2ccco2)C(C(=O)NC2CCCC2)c2ccncc2)cc1 (configuration not stated),inactive: 31.7%,–

# Exported tab-delimited: part of the list above.
SMILES	activity change, negative = inhibition	Potency
CCOc1ccc(NC(=O)c2nn(C)c(C(=O)Nc3ccc(OCC)cc3)c2[N+](=O)[O-])cc1	–	inconclusive: 20.8 µM [inhibitor, partial curve, poor fit]
Cc1nc2ccccc2c(=O)n1-c1ccc(-c2ccccc2)cc1	–	inconclusive: 1.85 µM [inhibitor, partial curve, poor fit]

# (cont.)

SMILES,"activity change, negative = inhibition",Potency
COC(=O)N1CCN(c2ccc(C)cc2)C(C)C1 (configuration not stated),–,"inconclusive: 8.28 µM [inhibitor, partial curve]"
O=C(NCC1CCCO1)c1cc2nc(-c3ccco3)cc(C(F)(F)Cl)n2n1 (configuration not stated),inactive: 48.2%,–
C[C@@H]1C[C@H]2[C@@H]3CCC4=CC(=O)C=C[C@]4(C)[C@@]3(F)[C@@H](O)C[C@]2(C)[C@@]1(O)C(=O)CO,–,"inconclusive: 10.4 µM [inhibitor, single point]"
Cc1ccc(NC(=O)CCC(=O)N/N=C/c2ccc(O)cc2O)cc1,–,"inconclusive: 4.15 µM [inhibitor, partial curve]"
Cc1occc1C(=O)NCc1nc(-c2ccc(Cl)cc2)no1,inactive: 32%,–
Cc1ccc(Cn2c(N)nc3ccccc32)cc1,inactive: -3.93%,–
CCOc1ccc(OCCC(=O)OCC(=O)NNC(=O)c2ccccc2)cc1,–,"inconclusive: 3.29 µM [inhibitor, partial curve, poor fit]"
COc1cc2c(cc1OC)C(/C(C#N)=N\O)=NC(C)(C)C2,–,"inconclusive: 4.15 µM [inhibitor, single point]"
O=C(c1n[nH]c(=O)c2ccccc12)N1CCN(S(=O)(=O)c2ccccc2Cl)CC1,–,active: 5.86 µM
COc1ccc(CSc2nncn2N)cc1[N+](=O)[O-],–,active: 7.38 µM
COC(=O)c1sc(-c2ccc(Cl)cc2)cc1NC(=O)/C=C/C(=O)O,inactive: 0.334%,–
O=C(CCc1ccccc1)NCCC1=CCCCC1,–,"inconclusive: 18.5 µM [inhibitor, single point]"
O=C(O)COC(=O)Cc1ccccc1Nc1c(Cl)cccc1Cl,–,"inconclusive: 0.0029 µM [inhibitor, full curve]"
N/C(=N\OC(=O)c1cnn(-c2ccccc2)c1C(F)(F)F)c1ccc(C(F)(F)F)cc1,inactive: 45.6%,–
CCCS(=O)(=O)c1nc(S(=O)(=O)c2ccc(C)cc2)c(N2CCc3ccccc3C2)s1,–,"inconclusive: 1.17 µM [inhibitor, partial curve, poor fit]"
Cc1ccccc1NS(=O)(=O)c1ccc(C(=O)N2CCCCCC2)cc1,inactive: 15.1%,–
Cc1cc(C)c(NC(=O)CN2CCN3CCCC3C2)c(C)c1 (configuration not stated),inactive: 5.87%,–
CCCCC(CC)CNCC(O)c1ccccc1 (configuration not stated),–,"inconclusive: 2.08 µM [inhibitor, full curve]"
CN(C)S(=O)(=O)c1ccc2c(c1)c(=O)c(C(=O)NCCCN1CCCCCC1)cn2C,–,"inconclusive: 3.7 µM [inhibitor, full curve]"
O=C(O)CSc1ncnc2nc[nH]c12,inactive: -18.8%,–
S=C(NCCCCNC(=S)NCc1ccccc1)NCc1ccccc1,inactive: -30%,–
CC(C)OC(=O)c1nnc(Cc2ccc(F)cc2)o1,–,"inconclusive: 10.4 µM [inhibitor, partial curve, poor fit]"
O=C(OCc1ccc(COC(=O)c2ccc(O)cc2)cc1)c1ccc(O)cc1,–,"inconclusive: 11.7 µM [inhibitor, single point]"
